No constants are given. Whether binding was seen depends on the method and setting. Some binding calls cover weakened binding; strength is not graded here.
B1: IscS S10Q, H247P, Q248L variant (enzyme, E. coli)
chain: MKLPIYLDYQATTPVDPRVAEKMMQFMTMDGTFGNPASRSHRFGWQAEEAVDIARNQIADLVGADPREIVFTSGATESDNLAIKGAANFYQKKGKHIITSKTEHKAVLDTCRQLEREGFEVTYLAPQRNGIIDLKELEAAMRDDTILVSIMHVNNEIGVVQDIAAIGEMCRARGIIYHVDATQSVGKLPIDLSQLKVDLMSFSGHKIYGPKGIGALYVRRKPRVRIEAQMHGGGHERGMRSGTLPVPLIVGMGEAYRIAKEEMATEMERLRGLRNRLWNGIKDIEEVYLNGDLEHGAPNILNVSFNYVEGESLIMALKDLAVSSGSACTSASLEPSYVLRALGLNDELAHSSIRFSLGRFTTEEEIDYTIELVRKSIGRLRDLSPLWEMYKQGVDLNSIEWAHH

Target: B1
Assay: SEC

Binder: B1
- binding: binds weakly

Source: doi:10.1101/2020.10.06.326603 (bioRxiv, 2020)
